Measurements reported in PubChem BioAssay AID504786 (Drosophila RNAi Screening Center, 2011)
The screen tested about 21,000 reagents; this is an unselected part of those with a known target gene and a result. 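Primary screen; positive scores mean lost reporter signal, so the sign may be inverted from the usual convention.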 Reagents against one gene are numbered here. Names joined by + are all predicted targets of the reagent. Further read-outs or replicates are left out here. No sequences are given here.

Purpose: 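Knock-downs reducing HIF reporter induction by the iron chelator DFO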 (primary screen)
Cells: Drosophila S2 cells with a stable HIF luciferase reporter
Reagents: long dsRNA against Drosophila genes, about 0.2 µg dsRNA per well of a 384-well plate
Duration: three days of knock-down, then 20 h of DFO before reading
Challenge: desferrioxamine (DFO) at 100 µM, an iron chelator that mimics hypoxia, for 20 h
Measured: 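Firefly luciferase driven by the mouse ldh-a hypoxia-response element, measured after 20 h of 100 µM DFO; z-scores per plate, higher means more signal lost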
Scale: z-score: higher = stronger loss of HIF reporter signal

The opening 3 records, ahead of the listing:
no.	predicted target	reagent no.	z-score, replicate 1
1	Rsph1 (GeneID 34712)	1	-0.2
2	Alh (GeneID 40850)	1	3.3
3	Alh (GeneID 40850)	2	-0.5

The list itself, repeating the preview:
no.	predicted target	reagent no.	z-score, replicate 1
1	Rsph1 (GeneID 34712)	1	-0.2
2	Alh (GeneID 40850)	1	3.3
3	Alh (GeneID 40850)	2	-0.5
4	Alh (GeneID 40850)	3	0.1
5	CG5888 (GeneID 34980)	1	-0.1
6	Bicra (GeneID 43435)	1	0
7	hts (GeneID 37230)	1	-0.5
8	CG33285 (GeneID 2768988)	1	-0.3
9	Pi4KIIIalpha (GeneID 31247)	1	-0.1
10	CG14471 (retired record) (GeneID 35525)	1	-0.3
11	Ada1-1 + Ada1-2	1	0.3
12	Ada1-1 + Ada1-2	2	0.2
13	dnr1 (GeneID 37575)	1	-0.1
14	dnr1 (GeneID 37575)	2	-0.3
15	Sras (GeneID 44002)	1	-0.3
16	Tango14 (GeneID 33298)	1	-0.3
17	CG15118 (GeneID 37199)	1	-0.1
18	Hrb27C (GeneID 33968)	1	-0.5
19	Strica (GeneID 35528)	1	-0.4
20	CG30047 (GeneID 246414)	1	-0.2
21	eIF3b (GeneID 36981)	1	4.9
22	CG7120 (GeneID 38954)	1	-0.1
23	abs (GeneID 40530)	1	0.6
24	His1:CG33816 + His1:CG33828 + His1:CG33819 + 21 more	1	0
25	Calx (GeneID 42481)	1	3.9
26	Calx (GeneID 42481)	2	-0.2
27	Calx (GeneID 42481)	3	-0.2
28	mei-S332 (GeneID 37523)	1	-0.1
29	CG13829 (GeneID 42740)	1	-0.2
30	CG33158 (GeneID 39834)	1	-0.4
31	CG33158 (GeneID 39834)	2	-0.2
32	CG33158 (GeneID 39834)	3	-0.2
33	Samtor (GeneID 37934)	1	-0.3
34	VhaAC39-2 (GeneID 42739)	1	-0.5
35	CG31088 (GeneID 318590)	1	0.1
36	CG1233 (GeneID 38063)	1	-0.2
37	CG13005 (GeneID 32670)	1	0
38	aly (GeneID 45960)	1	-0.4
39	Pdzd8 (GeneID 32157)	1	0.2
40	CG17625 (GeneID 42678)	1	-0.3
41	Prm (GeneID 39002)	1	-0.3
42	Prm (GeneID 39002)	2	-0.4
43	Prm (GeneID 39002)	3	-0.4
44	CG8414 (GeneID 36774)	1	-0.1
45	Alg10 (GeneID 326193)	1	-0.4
46	Dap160 (GeneID 35378)	1	-0.3
47	CG2938 (GeneID 31347)	1	-0.2
48	CG13876 (GeneID 38031)	1	-0.3
49	mRpS7 (GeneID 34412)	1	1
50	IFT46 (GeneID 35114)	1	-0.2
51	Ance-2 (GeneID 34806)	1	-0.3
52	Vps25 (GeneID 35847)	1	-0.3
53	CG43339 + CG43338	1	-0.4
54	CG13484 (GeneID 39560)	1	0
55	CG32196 (GeneID 317908)	1	0.7
56	roh (GeneID 246602)	1	1.7
57	Tm1 (GeneID 41852)	1	-0.3
58	Tm1 (GeneID 41852)	2	-0.5
59	Tm1 (GeneID 41852)	3	-0.2
60	msps (GeneID 41952)	1	-0.2
61	CG31937 (GeneID 326177)	1	-0.2
62	Aldh7A1 (GeneID 40097)	1	-0.2
63	Mcm6 (GeneID 31603)	1	-0.3
64	CG15213 (GeneID 50316)	1	1.4
65	CG32299 + CG32298	1	-0.3
66	CG13630 (GeneID 42943)	1	-0.2
67	Vps50 (GeneID 37021)	1	-0.3
68	wun2 (GeneID 53558)	1	-0.3
69	CG33257 (GeneID 2768960)	1	-0.2
70	Rpt3 (GeneID 32047)	1	6.5
71	CG8142 (GeneID 32763)	1	-0.2
72	Spn77Bb + Spn77Bc	1	-0.3
73	Spn77Bb + Spn77Bc	2	-0.3
74	BckdhA (GeneID 41149)	1	-0.3
75	Atx-1 (GeneID 31624)	1	-0.3
76	iav (GeneID 31621)	1	0
77	Nepl18 (GeneID 43410)	1	-0.2
78	CG17834 (GeneID 34191)	1	-0.5
79	Ttc19 (GeneID 35172)	1	-0.3
80	CG32712 (GeneID 318165)	1	-0.1
81	CG32163 (GeneID 317891)	1	-0.6
82	CG17287 (GeneID 36939)	1	-0.2
83	Snap24 (GeneID 41193)	1	-0.2
